Measurements: PubChem BioAssay AID540256 (National Center for Advancing Translational Sciences (NCATS), 2011)
“And” between values parts separate entries of the source, which are not always exact repeats. Identical values can stand only once. About 3,700 (1.2%) of roughly 300,000 compounds were called active. This list was built around the results that the source calls inconclusive (neither active nor inactive); the mix of calls is not that of the screen. Calls follow the shape of the full dose curve; tested in HEK293 cells. A potency beside an inconclusive call is a rough fit, not a confirmed value.

Experiment: qHTS for Inhibitors of binding or entry into cells for Lassa Virus; also: nearly all actives have a fitted effect of over 50% in size
Conditions: Lassa virus pseudotype entry inhibition, cell reporter; activity change, negative = inhibition: at 37.9 µM (top of the series) unless noted
% is scaled to controls: 0 for no effect and ±100 for the full control effect; potency is read from the fitted curve at half-maximal effect.

Row | SMILES | activity change, negative = inhibition | Potency
1 | Cc1ccc(S(=O)(=O)ON2C(=O)c3cccc4cccc(c34)C2=O)cc1 | inactive: -16.1% | 
2 | O=C(CSc1nccn1C1CCCC1)Nc1ccc(C(F)(F)F)cc1 |  | inconclusive: 6.31 µM [activator, single point]
3 | COC(=O)c1cc(NS(=O)(=O)c2ccc(N3CCCCC3)c([N+](=O)[O-])c2)cc(C(=O)OC)c1 |  | inconclusive: 12.6 µM [inhibitor, partial curve]
4 | Cc1ccc(CNC(=O)C2CCN(C(=O)c3cccc(Cl)c3)CC2)cc1 |  | inconclusive: 3.55 µM [inhibitor, partial curve, poor fit]
5 | Cc1ccc(C)c(OCCC(=O)OCC(=O)NC(=O)NCc2ccccc2)c1 | inactive: -18.8% | 
6 | COc1ccc(NC(=S)N2CCC(C(=O)c3ccc(OC)cc3)CC2)cc1 | inactive: -27.6% | 
7 | Cc1c(C(=O)NCCCN2CCCC2=O)oc2ccccc12 | inactive: -7.9% | 
8 | O=C(O)/C=C/c1cnn(-c2ccccc2)c1 |  | active: 2.82 µM
9 | Cc1ccc(NC2=NCC(=O)N2Cc2cccs2)cc1C |  | inconclusive: 14.6 µM [inhibitor, partial curve, poor fit]
10 | Cn1nnnc1SCc1nc2ccccc2s1 |  | inconclusive: 0.891 µM [activator, full curve, poor fit]
11 | COc1ccc(CC(=O)NC2CCS(=O)(=O)C2)cc1 (configuration not stated) | inactive: 25.8% | 
12 | COc1cc(-c2nnc(-c3cc(OC)c(OC)c(OC)c3)o2)cc(OC)c1OC | inactive: -12.7% | 
13 | COC(=O)c1cc(S(=O)(=O)N2CCC(C)CC2)ccc1F |  | inconclusive: 1.3 µM [inhibitor, full curve]
14 | CC(C)Nc1nc(-c2cccnc2)nc(-c2ccc(Cl)cc2)c1C#N | inactive: 11.6% [at 46.1 µM] | 
15 | Cc1cc(N2CCN(C)CC2)nc2ccc(NC(=O)CCC(=O)NCCC3=CCCCC3)cc12 |  | inconclusive: 16.4 µM [inhibitor, partial curve]
16 | COC(=O)Cc1ccc(NC(=S)N2CCC(Cc3ccccc3)CC2)cc1 |  | inconclusive: 0.447 µM [activator, single point]
17 | O=C(CSc1cccs1)NCCc1ccccc1 | inactive: 0.0131% | 
18 | CCOC(=O)N1CCN(C(=O)c2ccc(CSc3ccc(Cl)cc3)cc2)CC1 |  | inconclusive: 22.4 µM [inhibitor, partial curve, poor fit]
19 | COc1ccc2cc(C#N)c(Nc3cccc(F)c3)nc2c1 | inactive: -4.88% | 
20 | COc1ccc(OC)c(NC(=O)Cn2cc(C(=O)c3ccccc3F)c3ccccc32)c1 |  | inconclusive: 6.31 µM [inhibitor, single point]
21 | CC(C)CCn1cnc2c(NCc3ccccc3)ncnc21 | inactive: 2.93% | 
22 | CCCCC1S/C(=N/N=C/c2ccc(OC)cc2)N(Cc2ccc(OC)cc2)C1=O (configuration not stated) |  | inconclusive: 14.6 µM [inhibitor, partial curve, poor fit]
23 | CC(C)c1ccc2oc(-c3ccc(NC(=O)c4ncn[nH]4)cc3)nc2c1 | inactive: -5.82% | 
24 | O=C(COc1ccccc1Cl)Nc1ccc(C(=O)c2ccc(C(=O)O)cc2)cc1 |  | inconclusive: 35.5 µM [inhibitor, single point]

Row | SMILES | activity change, negative = inhibition | Potency
25 | CSc1ncc(C(=O)N2CCN(c3cc(C)ccc3C)CC2)c(C)n1 | inactive: -25% [at 46.1 µM] | 
26 | Cc1ccc(/C=c2\sc3n(c2=O)CN(c2cccc(Br)c2)CN=3)o1 | inactive: 15% | 
27 | COc1ccc(NCC(=O)N/N=C(\C)c2cc3ccccc3o2)cc1 |  | inconclusive: 4.47 µM [inhibitor, full curve, poor fit]
28 | O=c1c2c3c(sc2nc2sc(C4CC4)nn12)CCCC3 |  | inconclusive: 0.316 µM [activator, partial curve, poor fit]
29 | CC(=O)c1ccc(N2CCN(c3ccnc4cc(Cl)ccc34)CC2)cc1 |  | inconclusive: 0.562 µM [inhibitor, full curve, poor fit]
30 | Fc1ccccc1COc1ccc(Br)cc1CNCc1cccnc1 |  | inconclusive: 35.5 µM [inhibitor, single point]
31 | CC(OC(=O)C1=COCCO1)C(=O)Nc1ccc(Cl)cn1 (configuration not stated) | inactive: -4.04% | 
32 | C=C1c2cccc(O)c2C(O)=C2C(=O)[C@@]3(O)C(O)=C(C(N)=O)C(=O)[C@@H](N(C)C)[C@@H]3[C@@H](O)[C@H]12 |  | inconclusive: 11.2 µM [activator, partial curve, poor fit]
33 | CNC(=O)CSc1nccn1Cc1ccc(Cl)cc1 |  | inconclusive: 1 µM [inhibitor, single point]
34 | Cc1cc(/C=c2/sc3nc4ccccc4n3c2=O)c(C)n1-c1ccccn1 |  | active: 0.206 µM
35 | CCc1cccc2c(C(=O)Cn3nnc(-c4ccc(OC)c(OC)c4)n3)c[nH]c12 |  | inconclusive: 12.6 µM [inhibitor, single point]
36 | O=C(NCc1cccs1)Nc1ccc(Cl)cc1 |  | inconclusive: 35.5 µM [inhibitor, single point]
37 | CC(C)c1nc(CNC(=O)CCc2nnc(-c3ccsc3)o2)cs1 | inactive: 6.6% | 
38 | CCC(COC(=O)Nc1cccc(C)c1)NC(=O)OCC(C)C (configuration not stated) |  | inconclusive: 35.5 µM [inhibitor, single point]
39 | CCCn1c(CCc2ccccc2)nnc1SCC(=O)N1CCOCC1 | inactive: 14.7% | 
40 | Oc1ccc2ccccc2c1CN1CCOCC1 |  | inconclusive: 10 µM [inhibitor, partial curve, poor fit]
41 | COc1cccc(NC(=O)CN2C(=O)NC(C)(CCC(C)C)C2=O)c1 (configuration not stated) | inactive: -0.749% | 
42 | COC(=O)c1cn[nH]c1NC(=S)Nc1ccc(C)cc1Cl |  | active: 7.3 µM
43 | COc1ccc(CNC(=O)CN(Cc2ccc(Cl)cc2)S(=O)(=O)c2ccccc2)cc1 |  | inconclusive: 16.4 µM [inhibitor, partial curve, poor fit]
44 | O=C(CN1c2ccccc2Sc2ccccc21)NNC(=S)Nc1ccc(Cl)cc1Cl |  | inconclusive: 35.5 µM [inhibitor, single point]
45 | Brc1ccc2c(c1)C(OC1CN3CCC1CC3)c1ccccc1CS2 (configuration not stated) |  | inconclusive: 29.1 µM [inhibitor, single point]
46 | CCN(CC)CCn1c2ccc(F)cc2c2nc(C)sc21 |  | inconclusive: 14.6 µM [activator, partial curve, poor fit]
47 | Cc1ccc(OCC(=O)N/N=C/c2c[nH]c3ccccc23)c([N+](=O)[O-])c1 |  | inconclusive: 28.2 µM [inhibitor, single point]
48 | Cc1cc2c(C(C)C)c(O)c(O)c(C=O)c2c(O)c1-c1c(C)cc2c(C(C)C)c(O)c(O)c(C=O)c2c1O |  | active: 12.5 µM and active: 7.05 µM

Row | SMILES | activity change, negative = inhibition | Potency
49 | Cc1ccccc1N(C(=O)c1snc(C(N)=O)c1N)C(C)C(=O)NC1CCCCC1 (configuration not stated) |  | inconclusive: 2.82 µM [inhibitor, partial curve, poor fit]
50 | Cc1nc2cc(C(F)(F)F)ccc2n1C |  | inconclusive: 35.5 µM [inhibitor, single point]
51 | O=C(O)c1ccc(-n2nnnc2SCc2cccc(Br)c2)cc1 |  | inconclusive: 6.31 µM [activator, full curve, poor fit]
52 | CCc1ccc(/C=N/NC(=O)c2cc(-c3cccc([N+](=O)[O-])c3)n[nH]2)cc1 |  | inconclusive: 7.08 µM [inhibitor, full curve, poor fit]
53 | COCCCn1c(SCC(=O)OC2CCCCC2)nnc1-c1cccs1 | inactive: 6.27% | 
54 | CCOc1ccc(NC(=O)CCC(=O)c2ccc(Br)cc2)cc1 |  | inconclusive: 14.1 µM [inhibitor, single point]
55 | Cc1nc(N)sc1N=Nc1ccc(Br)cc1 |  | inconclusive: 2.06 µM [activator, full curve]
56 | CC(=O)Nc1cccc(C(=O)OC(C(=O)c2ccc(C)cc2)c2ccccc2)c1 (configuration not stated) |  | inconclusive: 18.3 µM [inhibitor, single point]
57 | O=C(CSc1nnc2ccccn12)Nc1ccccc1Cl | inactive: 10.3% [at 46.1 µM] | 
58 | CN(C)C(=O)CCc1nc(-c2ccc(C(C)(C)C)cc2)no1 |  | inconclusive: 6.31 µM [inhibitor, full curve, poor fit]
59 | COc1cccc(/C=C2/C(=O)NN(c3ccc(F)cc3)C2=O)c1 | inactive: -0.665% | 
60 | CN1CCN(c2ccc(NC(=O)c3ccc(-c4ccc(Br)cc4)o3)cc2)CC1 |  | inconclusive: 35.5 µM [inhibitor, single point]
61 | COc1cc2c(cc1OC)CN(C(=O)c1ccc(S(=O)(=O)N(C)c3ccccc3)cc1)CC2 |  | inconclusive: 29.1 µM [inhibitor, single point]
62 | Cc1ccc(-c2nc3c(c(=O)c4ccccc4n3C)c(=O)n2Cc2ccco2)cc1 |  | inconclusive: 4.47 µM [inhibitor, partial curve, poor fit]
63 | Cc1nn(C)c2c1c(-c1ccccc1)cc(=O)n2Cc1ccc(F)cc1 | inactive: -10.2% [at 46.1 µM] | 
64 | CO/N=C(\N)c1nonc1N |  | inconclusive: 12.6 µM [activator, partial curve, poor fit]
65 | Cc1cc(C)n2nc(SCC(=O)N/N=C/c3ccccc3F)nc2n1 |  | inconclusive: 6.51 µM [inhibitor, single point]
66 | COC(=O)c1ccc(C2CC(=O)Nc3cc(OC)c(OC)c(OC)c32)cc1 (configuration not stated) | inactive: 3.27% | 
67 | CCOc1ccc(C2CC(c3c(O)n(C)c(=O)n(C)c3=O)=NN2)cc1 (configuration not stated) |  | inconclusive: 0.631 µM [inhibitor, partial curve, poor fit]
68 | Cc1ccc(C(=O)Nc2ccc(S(=O)(=O)N3CCOCC3)cc2)cc1 | inactive: -28.9% | 
69 | Cc1cc(/C(N)=N/OC(=O)c2ccccc2Cl)no1 |  | inconclusive: 11.2 µM [inhibitor, single point]
70 | CN1/C(=C\C(=O)C(F)F)C(C)(C)c2ccccc21 | inactive: -1.77% | 
71 | Nc1cc(-c2ccc(Cl)cc2)nn1-c1ccccc1 | inactive: 4.04% [at 46.1 µM] | 
72 | O=C(Cc1cnc2ncnn2c1)N1CCc2c([nH]c3ccccc23)C1c1ccccn1 (configuration not stated) |  | inconclusive: 0.355 µM [inhibitor, full curve, poor fit]
